Drawing on PMC10190289, this text covers binding for two molecules.

By UniProt entry, the sequences of proteins in these tests, tags left out. Residues count along the entry.
UniProt P27040, residues 19-536: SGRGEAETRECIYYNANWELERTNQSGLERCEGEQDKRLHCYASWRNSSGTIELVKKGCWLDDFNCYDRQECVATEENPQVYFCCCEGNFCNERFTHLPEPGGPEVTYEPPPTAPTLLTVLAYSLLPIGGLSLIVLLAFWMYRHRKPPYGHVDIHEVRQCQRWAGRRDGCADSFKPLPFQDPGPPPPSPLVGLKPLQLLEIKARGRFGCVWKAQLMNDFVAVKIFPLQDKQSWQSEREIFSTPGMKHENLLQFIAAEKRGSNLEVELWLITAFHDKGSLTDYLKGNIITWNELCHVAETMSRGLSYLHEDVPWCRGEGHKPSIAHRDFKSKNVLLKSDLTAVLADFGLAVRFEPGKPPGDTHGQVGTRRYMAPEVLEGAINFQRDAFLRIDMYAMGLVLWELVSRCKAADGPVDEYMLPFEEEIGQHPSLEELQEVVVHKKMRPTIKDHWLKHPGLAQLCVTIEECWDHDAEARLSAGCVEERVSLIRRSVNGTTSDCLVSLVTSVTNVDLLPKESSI
UniProt Q13705, residues 19-512: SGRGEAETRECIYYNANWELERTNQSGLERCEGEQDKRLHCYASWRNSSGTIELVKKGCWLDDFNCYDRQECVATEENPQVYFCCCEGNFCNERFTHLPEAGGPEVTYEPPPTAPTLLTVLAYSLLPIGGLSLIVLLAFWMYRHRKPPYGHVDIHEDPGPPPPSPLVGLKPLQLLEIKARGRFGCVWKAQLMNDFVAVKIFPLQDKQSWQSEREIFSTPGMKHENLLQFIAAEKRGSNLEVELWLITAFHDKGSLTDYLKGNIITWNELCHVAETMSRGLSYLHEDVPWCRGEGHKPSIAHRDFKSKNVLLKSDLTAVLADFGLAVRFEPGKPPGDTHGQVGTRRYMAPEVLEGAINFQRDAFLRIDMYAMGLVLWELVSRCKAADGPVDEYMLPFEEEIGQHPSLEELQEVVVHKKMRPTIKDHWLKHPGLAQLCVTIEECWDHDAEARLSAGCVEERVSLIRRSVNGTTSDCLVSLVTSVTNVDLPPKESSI

No constants are given. Whether binding was seen depends on the method and setting. In cells and extracts the contact can be indirect. Some results given as binding are weak or reduced against the parent protein; the word gives no strength.

For assay [1], the target named is ACVR2B (activin receptor IIB), endogenous (mouse (endogenous in primary mouse articular chondrocytes)) (UniProt P27040). As to the kind of experiment: co-IP; endogenous proteins in IL-1β-treated or Ad-activin A-infected chondrocytes; lysis buffer 150 mM NaCl, 1% NP-40, 50 mM Tris, 0.2% SDS, 5 mM NaF; anti-ACVR2B overnight at 4 °C, protein A/G plus beads 6 h at 4 °C; blots for ACVR1B, ACVR2B, NOX4.

Assay [2] addresses WT ACVR2B (activin receptor IIB), p3XFLAG-CMV-7.1-ACVR2B (UniProt Q13705). Briefly: co-IP; chondrocytes transfected with p3XFLAG-CMV-7.1-ACVR2B or muACVR2B for 36 h, activin A-overexpression conditions; lysis buffer 150 mM NaCl, 1% NP-40, 50 mM Tris, 0.2% SDS, 5 mM NaF; anti-FLAG overnight at 4 °C, protein A/G plus beads 6 h at 4 °C; blot for NOX4.

B1: NADPH oxidase 4 (Nox4), endogenous (protein, UniProt Q9JHI8 1-578)
chain: MAVSWRSWLANEGVKHLCLLIWLSLNVLLFWKTFLLYNQGPEYYYIHQMLGLGLCLSRASASVLNLNCSLILLPMCRTVLAYLRGSQKVPSRRTRRLLDKSKTLHITCGVTICIFSGVHVAAHLVNALNFSVNYSEDFLELNAARYQNEDPRKLLFTTIPGLTGVCMVVVLFLMVTASTYAIRVSNYDIFWYTHNLFFVFYMLLLLHVSGGLLKYQTNVDTHPPGCISLNQTSSQNMSIPDYVSEHFHGSLPRGFSKLEDRYQKTLVKICLEEPKFQAHFPQTWIWISGPLCLYCAERLYRCIRSNKPVTIISVINHPSDVMELRMIKENFKARPGQYIILHCPSVSALENHPFTLTMCPTETKATFGVHFKVVGDWTERFRDLLLPPSSQDSEILPFIHSRNYPKLYIDGPFGSPFEESLNYEVSLCVAGGIGVTPFASILNTLLDDWKPYKLRRLYFIWVCRDIQSFQWFADLLCVLHNKFWQENRPDFVNIQLYLSQTDGIQKIIGEKYHTLNSRLFIGRPRWKLLFDEIAKCNRGKTVGVFCCGPSSISKTLHSLSNRNNSYGTKFEYNKESFS
As for B1, the binding entry in assay [1] and in assay [2] was “binds” in each case.

B2: ACVR1B, endogenous (receptor, UniProt Q61271 24-505)
chain: SGPRGIQALLCACTSCLQTNYTCETDGACMVSIFNLDGVEHHVRTCIPKVELVPAGKPFYCLSSEDLRNTHCCYIDFCNKIDLRVPSGHLKEPAHPSMWGPVELVGIIAGPVFLLFLIIIIVFLVINYHQRVYHNRQRLDMEDPSCEMCLSKDKTLQDLVYDLSTSGSGSGLPLFVQRTVARTIVLQEIIGKGRFGEVWRGRWRGGDVAVKIFSSREERSWFREAEIYQTVMLRHENILGFIAADNKDNGTWTQLWLVSDYHEHGSLFDYLNRYTVTIEGMIKLALSAASGLAHLHMEIVGTQGKPGIAHRDLKSKNILVKKNGMCAIADLGLAVRHDAVTDTIDIAPNQRVGTKRYMAPEVLDETINMKHFDSFKCADIYALGLVYWEIARRCNSGGVHEDYQLPYYDLVPSDPSIEEMRKVVCDQKLRPNVPNWWQSYEALRVMGKMMRECWYANGAARLTALRIKKTLSQLSVQEDVKI
For the molecule B2, in assay [1], the binding entry is “binds”.
